Inconclusive results, whose numbers are uncertain, are shown with a selection of clear calls. Potencies beside an inconclusive call are fits to weak or partial responses and may not hold up. Activity calls are given as the source filed them. The call rests on the fitted dose curve; in most records, active means well fitted activation curve with a large enough effect; inconclusive means small, poorly fitted or top-dose-only effect; inactive means no such curve, though single readings can be large or run the other way.
Test: qHTS Assay for Identifying a Potential Treatment of Ataxia-Telangiectasia: Hit Validation;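 further: phospho-KAP1 level by AlphaLISA as a proxy for ATM-like kinase activity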; on activity change, positive = activation: 0% is about no effect
Conditions: Ataxia-telangiectasia cell-based hit validation qHTS, in ATM-null A-T patient fibroblasts; series mostly up to 76.9 µM; activity change, positive = activation: at the top concentration
Summary of the method: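 hTERT-immortalized A-T patient fibroblasts ([…]) were dosed at up to 76.7 uM final for 60 min at 37C. After a further 30 min incubation, cells were lysed, and phospho-KAP1 was detected by AlphaLISA after 6 hr at 25C.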
Potency means the concentration at half of the fitted maximal effect.

Row | Structure (SMILES) | activity change, positive = activation | Potency
1 | COc1ccc(-n2c(=S)[nH]c3ccccc3c2=S)cc1 | inactive: -12.5% | 
2 | COc1ccc(CCn2c(S)nc3ccccc3c2=O)cc1 |  | active: 26 µM
3 | COc1cccc(CNCc2ccc(OC)c3ccccc23)c1OC | inactive: 6.29% | 
4 | Cc1ccc2c(c1)C(=O)CC(O)(C(F)(F)F)O2 (stereo not drawn) | inactive: 0.694% | 
5 | Fc1ccc(C2N(c3ccccc3)C(=S)N3CCCN23)cc1 (stereo not drawn) |  | inconclusive: 58.2 µM [activator, single point]
6 | O=C(NC(=O)c1c(F)cccc1F)Nc1ccccc1SC(F)F |  | inconclusive: 32.8 µM [activator, single point]
7 | NCC(=O)c1cccc2ccc[n+]([O-])c12 |  | inconclusive: 10.4 µM [activator, full curve]
8 | O=C(/C(=C/c1ccc(Cl)cc1)c1nc2ccccc2[nH]1)c1cccs1 |  | inconclusive: 16.4 µM [activator, partial curve, poor fit]
9 | O=C(N/N=C/c1ccncc1)c1ccc(COc2cccc3cccnc23)cc1 |  | inconclusive: 32.8 µM [activator, single point]
10 | O=[N+]([O-])c1ccc(F)cc1F |  | active: 29.2 µM
11 | CCN1C/C(=C/c2sccc2C)c2nc3ccccc3c(C(=O)O)c2C1 |  | inconclusive: 32.8 µM [activator, single point]
12 | COc1ccccc1N1CN(CCc2ccccc2)CNC1=S |  | inconclusive: 5.82 µM [activator, full curve]
13 | CCOC(=O)Cc1csc(NC(=O)CSc2nnc(C(C)C)n2C)n1 |  | inconclusive: 29.2 µM [activator, partial curve, poor fit]
14 | Oc1cccc(NC(=S)N=Nc2c(O)[nH]c3ccccc23)c1 | inactive: 5.62% | 
15 | COc1ccccc1OC(=O)Nc1ccc(Cl)cc1 |  | inconclusive: 7.33 µM [activator, partial curve]
16 | O=C(OCCc1cc2ccccc2c(=O)o1)c1cccc(Br)c1 | inactive: -10% | 
17 | Cc1nc(Nc2ccc(Cl)cc2)c2oc3ccccc3c2n1 | inactive: -1.74% | 
18 | O=C(Nc1cc(S(=O)(=O)N2CCOCC2)ccc1Cl)c1cc(=O)c2ccccc2o1 |  | inconclusive: 14.6 µM [activator, partial curve, poor fit]
19 | C=CS(=O)(=O)c1sc(Cl)c(N2CCOCC2)c1[N+](=O)[O-] |  | inconclusive: 29.2 µM [activator, partial curve]
20 | CC(C)CC(=O)Nc1c2c(nn1-c1cccc(Cl)c1)CS(=O)C2 (stereo not drawn) |  | inconclusive: 58.2 µM [activator, single point]
21 | O=C(O)c1ccc(-c2nc3ccccc3s2)o1 |  | inconclusive: 26 µM [activator, partial curve, poor fit]
22 | Cc1ccc2c(c1)C(c1ccccc1)N(C(=O)CC(C)C)CC(=O)N2 (stereo not drawn) |  | inconclusive: 32.8 µM [activator, single point]
23 | Cc1nc2sc(C(N)=O)c(N)c2c2c1CCCC2 |  | inconclusive: 23.2 µM [activator, partial curve]
24 | CN(C)C(=O)c1nc2ccc(Cl)cn2c1CNCc1cccc(OC(F)(F)F)c1 | inactive: 6.64% | 
25 | CC1=NOC2(C1)N(C)c1ccccc1C2(C)C (stereo not drawn) | inactive: 2.08% | 
26 | C/C=C\C=C/C(=O)Nc1cccc(C2=NOC3(C2)C[C@@H](C(N)=O)N(C(=O)COc2ccc(Cl)cc2)C3)c1 (stereo partly drawn) | inactive: 20.1% | 
27 | O=C(O)c1nccnc1C(=O)Nc1ccccc1-c1ccccc1 |  | inconclusive: 36.8 µM [activator, partial curve]
28 | COc1cccc(OC)c1C(=O)NC(=O)Nc1c(C)cccc1C |  | inconclusive: 9.23 µM [activator, full curve, poor fit]

In another format: entries from further up.

| Row | Structure (SMILES) | activity change, positive = activation | Potency |
| --- | --- | --- | --- |
| 1 | COc1ccc(-n2c(=S)[nH]c3ccccc3c2=S)cc1 | inactive: -12.5% |  |
| 2 | COc1ccc(CCn2c(S)nc3ccccc3c2=O)cc1 |  | active: 26 µM |
